The list does not hold the whole screen: it is rich in T/C values a quarter to a half above the control, in often repeated tests (any T/C) and in doses without a T/C. Further doses and runs are listed elsewhere. T/C gives the treated animals as a percentage of the vehicle group. Some entries give survivors of the animals treated and no T/C: the source files T/C as zero there, which appears to mark a toxic dose or a test without result, not a measured value. Some survivor counts are full or nearly so, which does not show that the dose was tolerated: survival well below the control is almost never listed, so the zero probably covers shortened survival too. Survivors were counted at the toxicity check, usually on the fifth day, unless a day is given; later deaths do not show. Schedule codes are those of the source, taken here to give the interval after Q, in days (D) or hours (H), and the number of doses after X. Some entries hold several experiments; the results are listed from low to high. Some schedules carry Z or #; the key to these is not given. Where survival is the endpoint, the PubChem record calls one and a half times the control and up active, and a quarter to a half above the control has no call in these data; cut-offs in other NCI protocols can differ. Some T/C values are followed by the survivors on the day toxicity was checked, most often the fifth; without a count, all were alive then.
System: L1210 leukemia ip in BDF1 mice, survival T/C
Assay: NCI In Vivo Anticancer Drug Screen. Data for tumor model L1210 Leukemia (intraperitoneal) in B6D2F1 (BDF1) mice
Details: T/C endpoint: mean survival time, higher T/C = longer survival
[1] = dose: 400.0 mg/kg/injection, schedule: Q01DX001 (ip), vehicle: saline
[2] = dose: 400.0 mg/kg/injection, schedule: Q01DX009 (ip), vehicle: Klucel (hydroxypropylcellulose) (HPC)
[3] = dose: 400.0 mg/kg/injection, schedule: Q04DX003 (ip), vehicle: saline with Tween-80
[4] = dose: 200.0 mg/kg/injection, schedule: Q04DX003 (ip), vehicle: Klucel (hydroxypropylcellulose) (HPC)
[5] = dose: 400.0 mg/kg/injection, schedule: Q04DX003 (ip), vehicle: Klucel (hydroxypropylcellulose) (HPC)
[6] = dose: 100.0 mg/kg/injection, schedule: Q04DX003 (ip), vehicle: Klucel (hydroxypropylcellulose) (HPC)

For `COc1cc(-c2ccc(-[n+]3nc(-c4ccc([N+](=O)[O-])cc4)nn3-c3ccc([N+](=O)[O-])cc3)c(OC)c2)ccc1-[n+]1nc(-c2ccc([N+](=O)[O-])cc2)nn1-c1ccc([N+](=O)[O-])cc1`, the survivor count (dose: 75.0 mg/kg/injection, schedule: Q01DX001 (ip), vehicle: carboxymethylcellulose (CMC)) was 1 of 6, the survivor count (dose: 150.0 mg/kg/injection, schedule: Q01DX001 (ip), vehicle: carboxymethylcellulose (CMC)) was 1 of 6 and the survivor count (dose: 300.0 mg/kg/injection, schedule: Q01DX001 (ip), vehicle: carboxymethylcellulose (CMC)) was 0 of 6.

In the case of `C=CCOCCN1CCN(CCCN2c3ccccc3Sc3ccc(C(F)(F)F)cc32)CC1`, the survivor count (dose: 4.37 mg/kg/injection, schedule: Q01DX009 (ip), vehicle: saline) was 6 of 6, the survivor count (dose: 8.75 mg/kg/injection, schedule: Q01DX009 (ip), vehicle: saline) was 6 of 6 and the survivor count (dose: 17.5 mg/kg/injection, schedule: Q01DX009 (ip), vehicle: saline) was 0 of 6. For the same compound, the T/C (dose: 25.0 mg/kg/injection, schedule: Q04DX003 (ip), vehicle: saline) was 125 % of control, the T/C (dose: 35.0 mg/kg/injection, schedule: Q01DX003 (ip), vehicle: saline) was 129 % of control and the T/C (dose: 35.0 mg/kg/injection, schedule: Q04DX003 (ip), vehicle: saline) was 148 % of control [5 of 6 alive]. For the same compound, the survivor count (dose: 50.0 mg/kg/injection, schedule: Q04DX003 (ip), vehicle: saline) was 1 of 6 and the survivor count (dose: 100.0 mg/kg/injection, schedule: Q04DX003 (ip), vehicle: saline) was 5 of 6.

In the case of `S=c1nc[nH]c2c1ncn2C1CCCCO1` (centres undefined), the T/C (dose: 31.0 mg/kg/injection, schedule: Q01DX Z (ip), vehicle: carboxymethylcellulose (CMC)) was 129 % of control, the T/C (dose: 60.0 mg/kg/injection, schedule: Q01DX009 (ip), vehicle: saline) was 137 and 138 % of control and the T/C (dose: 62.0 mg/kg/injection, schedule: Q01DX Z (ip), vehicle: carboxymethylcellulose (CMC)) was 128 % of control. For the same compound, the T/C (dose: 100.0 mg/kg/injection, schedule: Q01DX001 (ip), vehicle: saline) was 138 % of control, the T/C (dose: 200.0 mg/kg/injection, schedule: Q01DX001 (ip), vehicle: carboxymethylcellulose (CMC)) was 135 % of control and the T/C (dose: 200.0 mg/kg/injection, schedule: Q01DX001 (ip), vehicle: saline) was 132 % of control. The survivor count (dose: 240.0 mg/kg/injection, schedule: Q01DX009 (ip), vehicle: saline) was 6 of 6, the T/C (dose: 300.0 mg/kg/injection, schedule: Q01DX001 (ip), vehicle: saline) was 128 % of control and the T/C (dose: 400.0 mg/kg/injection, schedule: Q01DX001 (ip), vehicle: carboxymethylcellulose (CMC)) was 130 and 145 % of control. The survivor count [1] was 1 of 6.

In the case of `C[CH2][Pb]([CH2]C)([CH2]C)[O]C(=O)C(Cl)(Cl)Cl`, the survivor count (dose: 1.56 mg/kg/injection, schedule: Q01DX009 (ip), vehicle: other) was 3 of 6 and 6 of 6, the survivor count (dose: 3.12 mg/kg/injection, schedule: Q01DX009 (ip), vehicle: other) was 3 of 6 and the survivor count (dose: 6.25 mg/kg/injection, schedule: Q01DX009 (ip), vehicle: other) was 1 of 6 and 1 of 3. For the same compound, the survivor count (dose: 12.5 mg/kg/injection, schedule: Q01DX009 (ip), vehicle: other) was 2 of 3, the survivor count (dose: 25.0 mg/kg/injection, schedule: Q01DX009 (ip), vehicle: other) was 0 of 3 and the survivor count (dose: 50.0 mg/kg/injection, schedule: Q01DX001 (ip), vehicle: other) was 0 of 6. For the same compound, the survivor count (dose: 50.0 mg/kg/injection, schedule: Q04DX002 (ip), vehicle: carboxymethylcellulose (CMC)) was 0 of 3 and 0 of 6, the survivor count (dose: 50.0 mg/kg/injection, schedule: Q04DX003 (ip), vehicle: other) was 0 of 6 and the survivor count (dose: 100.0 mg/kg/injection, schedule: Q01DX001 (ip), vehicle: other) was 0 of 6. For the same compound, the survivor count (dose: 100.0 mg/kg/injection, schedule: Q04DX002 (ip), vehicle: carboxymethylcellulose (CMC)) was 0 of 3 and 0 of 6, the survivor count (dose: 200.0 mg/kg/injection, schedule: Q04DX002 (ip), vehicle: carboxymethylcellulose (CMC)) was 0 of 3 and 0 of 6 and the survivor count (dose: 400.0 mg/kg/injection, schedule: Q04DX002 (ip), vehicle: carboxymethylcellulose (CMC)) was 0 of 3 and 0 of 6.

With `N#Cc1ccc(S(N)(=O)=O)cc1` the survivor count (dose: 200.0 mg/kg/injection, schedule: Q01DX009 (ip), vehicle: acetone) was 6 of 6 and the survivor count (dose: 400.0 mg/kg/injection, schedule: Q01DX009 (ip), vehicle: acetone) was 2 of 6.

In the case of `O=C(Nc1cccc(F)c1)Sc1ccc(Cl)cc1`, the survivor count (dose: 200.0 mg/kg/injection, schedule: Q01DX009 (ip), vehicle: Klucel (hydroxypropylcellulose) (HPC)) was 3 of 6 and 5 of 6 and the survivor count [2] was 1 of 6.

With `CC1=CC(=O)N(CCl)C1=O` the survivor count [3] was 0 of 6.

In the case of `COc1ccc(OC)c2c(C)cc(=O)[nH]c12`, the survivor count [1] was 0 of 6.

`CCc1cccc[n+]1CC(=O)c1ccc(-c2ccccc2)cc1` was tested, and the survivor count [4] was 0 of 6 and the survivor count [5] was 0 of 6.

In the case of `C1=C(c2ccccc2)CCC1`, the survivor count [5] was 1 of 6.

`CC(C)(C)C1CCC(NC(=O)C(Cl)(Cl)Cl)CC1` (centres undefined) was tested, and the survivor count (dose: 100.0 mg/kg/injection, schedule: Q01DX009 (ip), vehicle: Klucel (hydroxypropylcellulose) (HPC)) was 2 of 6, the survivor count [6] was 6 of 6 and the survivor count [4] was 0 of 6. The survivor count [5] was 0 of 6.

In the case of `CC[n+]1ccc(Nc2ccc(NC(=O)c3ccc(C(=O)Nc4ccc(Nc5cc[n+](CC)c(N)n5)cc4)cc3)cc2)nc1N`, the T/C (dose: 67.0 mg/kg/injection, schedule: Q01DX001 (ip), vehicle: saline) was 144 % of control, the survivor count (dose: 200.0 mg/kg/injection, schedule: Q01DX009 (ip), vehicle: saline) was 2 of 6 and the survivor count (dose: 300.0 mg/kg/injection, schedule: Q01DX009 (ip), vehicle: saline) was 0 of 6. The survivor count (dose: 450.0 mg/kg/injection, schedule: Q01DX009 (ip), vehicle: saline) was 0 of 6.

In the case of `O=NN(CCF)C(=O)NC1CS(=O)(=O)CS(=O)(=O)C1`, the T/C (dose: 3.12 mg/kg/injection, schedule: Q01DX001 (ip), vehicle: other) was 135 % of control.

`CC12C(=O)N(C3CCC(=O)NC3=O)C(=O)C1C1CCC2C1` (centres undefined) was tested, and the survivor count (dose: 200.0 mg/kg/injection, schedule: Q04DX003 (ip), vehicle: saline with Tween-80) was 0 of 3 and the survivor count [3] was 0 of 3.

With `CCc1c(O)c2c(c(O)c1C(C)=O)C(=O)c1c(cc(O)c(C(=O)O)c1C(=O)O)C2=O` the survivor count [3] was 1 of 6.

`CN1CCN(C(CO)Cc2ccccc2)CC1` (centres undefined) was tested, and the survivor count [1] was 0 of 4.

In the case of `CN(C)c1ccc(C#N)cc1`, the survivor count (dose: 12.5 mg/kg/injection, schedule: Q04DX002 (ip), vehicle: Klucel (hydroxypropylcellulose) (HPC)) was 3 of 3, the survivor count (dose: 25.0 mg/kg/injection, schedule: Q04DX002 (ip), vehicle: Klucel (hydroxypropylcellulose) (HPC)) was 0 of 3 and the survivor count (dose: 50.0 mg/kg/injection, schedule: Q04DX002 (ip), vehicle: Klucel (hydroxypropylcellulose) (HPC)) was 0 of 3. The survivor count (dose: 100.0 mg/kg/injection, schedule: Q04DX002 (ip), vehicle: Klucel (hydroxypropylcellulose) (HPC)) was 0 of 3.

For `O=[N+]([O-])c1ccc(N=NN(CCF)CCF)cc1`, the survivor count (dose: 12.5 mg/kg/injection, schedule: Q01DX Z (ip), vehicle: saline) was 3 of 6, the survivor count (dose: 25.0 mg/kg/injection, schedule: Q01DX Z (ip), vehicle: saline) was 0 of 6 and the survivor count (dose: 50.0 mg/kg/injection, schedule: Q01DX Z (ip), vehicle: saline) was 0 of 6. The survivor count (dose: 100.0 mg/kg/injection, schedule: Q01DX Z (ip), vehicle: saline) was 0 of 6 and the survivor count (dose: 300.0 mg/kg/injection, schedule: Q01DX Z (ip), vehicle: saline) was 0 of 6.

`CC(=O)Oc1ccc(Cl)cc1` was tested, and the survivor count (dose: 400.0 mg/kg/injection, schedule: Q01DX009 (ip), vehicle: saline with Tween-80) was 3 of 6.

`O=C(NCCCl)Sc1ccc(Cl)cc1` was tested, and the survivor count [6] was 4 of 6, the survivor count [4] was 4 of 6 and the survivor count [5] was 1 of 6.

For `CCCCCCCCCCCS(=O)(=O)C(CCOS(C)(=O)=O)COS(C)(=O)=O` (centres undefined), the survivor count [2] was 3 of 6.
